Measured values: publication PMC7819943, “Rice protein-binding microarrays: a tool to detect cis-acting elements near promoter regions in rice”
The other results are listed elsewhere or left out.

Target: T1, OsSMF1 (Oryza sativa, UniProt Q6ZLB0 1-436)
T1 sequence: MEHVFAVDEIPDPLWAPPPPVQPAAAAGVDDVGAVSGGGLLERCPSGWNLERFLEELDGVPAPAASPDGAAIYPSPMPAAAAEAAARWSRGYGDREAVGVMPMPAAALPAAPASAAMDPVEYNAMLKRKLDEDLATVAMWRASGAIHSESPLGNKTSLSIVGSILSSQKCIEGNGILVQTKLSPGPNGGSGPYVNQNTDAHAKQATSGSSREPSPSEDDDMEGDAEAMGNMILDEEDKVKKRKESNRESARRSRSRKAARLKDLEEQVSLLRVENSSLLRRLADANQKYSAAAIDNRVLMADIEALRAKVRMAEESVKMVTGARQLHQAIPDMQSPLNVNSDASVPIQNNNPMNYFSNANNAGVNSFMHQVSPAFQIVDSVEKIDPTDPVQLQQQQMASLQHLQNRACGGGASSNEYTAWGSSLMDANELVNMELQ
Experiment: protein-binding microarray (RPBM); PBS, 2% BSA, 51.3 ng/ul salmon testes DNA, 50 uM zinc acetate, 200 nM TF, 25 C, 1 h; high values mean tight binding
Settings: protein: recombinant; tags: N-terminal polyhistidine and DsRed monomer fusion (pET32a); chain copies: 2; label: CyDye5-dUTP incorporated in the synthesized complementary strand; 3' TTTTT single-stranded linker to array surface; dsDNA, one strand shown
Procedure, shortened: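 Using Ni–NTA, transcription factors fused N-terminally to polyhistidine and DsRed were purified after expression in E. coli BL21-CodonPlus. These were incubated at 200 nM with a blocked, double-stranded custom Agilent array for 1 h at 25 °C in a buffer containing 50 µM zinc acetate, and the array was washed. The binding signal is per-feature fluorescence intensity (arbitrary units) on an Axon 4000B scanner.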

| Sequence | binding signal |
| --- | --- |
| AAAATCTGTGGCGTGACTCGACTCGAGGACGTTGTCTGCACGGAGTCACCTAGTGCAG | 3840 fluorescence intensity (a.u.) |
| GGAGCGGCGCGCAGGAGAGGATCTACGGGCGGCGCCTGCTCGGAGTCACCTAGTGCAG | 14700 fluorescence intensity (a.u.) |
| GCGGGAAAGGAAGGCTGATCGCTTAATTAGCCGCTTCAGTCGGAGTCACCTAGTGCAG | 28500 fluorescence intensity (a.u.) |
| CGTCAATGTATGTTCTGGAGCTAACATAGCTCAATCATTGCGGAGTCACCTAGTGCAG | 5030 fluorescence intensity (a.u.) |
| ATGGTCTGGTCCCCGTGACGAGCACCGGTGGCCTCTCCCGCGGAGTCACCTAGTGCAG | 3450 fluorescence intensity (a.u.) |
| AGCGACAACCTTGGCAGCCCAAGTGTTGTTGCTCTGTGTGCGGAGTCACCTAGTGCAG | 27700 fluorescence intensity (a.u.) |
| AAAGCTGAAACCCTCCTCACTTCCACGCCTCTCTTTCCTTCGGAGTCACCTAGTGCAG | 3210 fluorescence intensity (a.u.) |
| AGTTAAATTTTAACTCATGGTGACGTGGACGAAACTCTGACGGAGTCACCTAGTGCAG | 25000 fluorescence intensity (a.u.) |
| AGATCGACCAATGATACACACACAGCATATGAATCCTTTCCGGAGTCACCTAGTGCAG | 41400 fluorescence intensity (a.u.) |
| CTCCAATTTAGGTCGATTCCATTCGAACATTCCTCCTCCACGGAGTCACCTAGTGCAG | 27600 fluorescence intensity (a.u.) |
| TCGCCCCAAATCCTCACGCCCGGTCATGAAATTGTATCCACGGAGTCACCTAGTGCAG | 3230 fluorescence intensity (a.u.) |
| GTTGGAGATGCTCTGAGAAACGCATATGTGGATGGTCTTACGGAGTCACCTAGTGCAG | 48100 fluorescence intensity (a.u.) |
| TAAGCTGCTGCCGACGTGCAGCTCATGGGCGATACCCTTGCGGAGTCACCTAGTGCAG | 3780 fluorescence intensity (a.u.) |
| TGATGTTGTTGTCCACCTAGGACGAGGACGTGGCATCGTGCGGAGTCACCTAGTGCAG | 10400 fluorescence intensity (a.u.) |
| ATATGACTATAAGAAATAGATGAAGAGAGTACGTCATTCTCGGAGTCACCTAGTGCAG | 5000 fluorescence intensity (a.u.) |
| ACTTCTATAGAGGAGCACACGCATGACCCCACAACATCTTCGGAGTCACCTAGTGCAG | 4380 fluorescence intensity (a.u.) |
| GCTGTGCAGTACCAAATCGTGACCGTTGATCAGGTCTCATCGGAGTCACCTAGTGCAG | 3380 fluorescence intensity (a.u.) |
| GCAAGATGATACGGGAGGAATCGGGAGCAGAAGCCGTGGGCGGAGTCACCTAGTGCAG | 3250 fluorescence intensity (a.u.) |
| TCTGACGGGCGATGACGACGACGACGGTGCAAAAGCCTGACGGAGTCACCTAGTGCAG | 3310 fluorescence intensity (a.u.) |
| TCGACCTTCCTTTCCTGTCGCCATCTTCACCGTCTTGCCACGGAGTCACCTAGTGCAG | 3370 fluorescence intensity (a.u.) |
| CCATTGACTGGATTGTAGTATAACAAGATGGATGATGCATCGGAGTCACCTAGTGCAG | 3180 fluorescence intensity (a.u.) |

Some of the entries so far, bar-delimited:
Sequence | binding signal
TCTGACGGGCGATGACGACGACGACGGTGCAAAAGCCTGACGGAGTCACCTAGTGCAG | 3310 fluorescence intensity (a.u.)
TCGACCTTCCTTTCCTGTCGCCATCTTCACCGTCTTGCCACGGAGTCACCTAGTGCAG | 3370 fluorescence intensity (a.u.)

More entries:

| Sequence | binding signal |
| --- | --- |
| AGGCTCGCTTGGTGGCACGTGGCTTCGTGCAGCAGGAGGGCGGAGTCACCTAGTGCAG | 3220 fluorescence intensity (a.u.) |
| GATGCTTGCGTGAGCCAGGAGCAGAGCCGGCTCTTCCTCTCGGAGTCACCTAGTGCAG | 3190 fluorescence intensity (a.u.) |
| TCCAACCGCTCGATCACCGCCGGTCTGACCGGCATACACACGGAGTCACCTAGTGCAG | 3230 fluorescence intensity (a.u.) |
| CACACATTCGCACCGCCGACGCCGAACAGAACAACAACAACGGAGTCACCTAGTGCAG | 64700 fluorescence intensity (a.u.) |
| AGTTCGGCTGATCTGATCTAAATCACGTGGCAATAGGCCGCGGAGTCACCTAGTGCAG | 5060 fluorescence intensity (a.u.) |
| CCCTCTTCTTCTTCCTAGTCACCTTCACTTGATCAGTTAGCGGAGTCACCTAGTGCAG | 7140 fluorescence intensity (a.u.) |
| TATATATATATATATATATATATATTTCATATGAAACACACGGAGTCACCTAGTGCAG | 3500 fluorescence intensity (a.u.) |
| GGAAGAGCCCAATTAACCGTACTATTGTTGCGTCATGGGCCGGAGTCACCTAGTGCAG | 4600 fluorescence intensity (a.u.) |
| CTTCACTAAGGTCATCGTCGTGCCTTCCTCGTCCTCCTCCCGGAGTCACCTAGTGCAG | 43800 fluorescence intensity (a.u.) |
| ATTGGGAACAATATATTCTGTCTAGATCGTGATGGTAAGACGGAGTCACCTAGTGCAG | 3200 fluorescence intensity (a.u.) |
| TCACCGGCGTACCTTAGCTTAGTCCTAGTAATTAAATGTACGGAGTCACCTAGTGCAG | 5000 fluorescence intensity (a.u.) |
| CATATAATTGATAGCAGCATGACAGATTGCCAGTTAGCCGCGGAGTCACCTAGTGCAG | 3290 fluorescence intensity (a.u.) |
| GCCGAGTAGAGGACAAACACACACGTGTTCATCCTAACGACGGAGTCACCTAGTGCAG | 3300 fluorescence intensity (a.u.) |
| TGCGCACGAGCAACACGTACGCAAGGGAGAAGGAGAGATCCGGAGTCACCTAGTGCAG | 4290 fluorescence intensity (a.u.) |
| GATGTTCAGATGTACAACAGTAATTTGATTGCATCGGCTTCGGAGTCACCTAGTGCAG | 3270 fluorescence intensity (a.u.) |
| GCTCTGCACGTGCCCTGCGGTTGCTCCATGTTGATAGTAGCGGAGTCACCTAGTGCAG | 22500 fluorescence intensity (a.u.) |
| CTAGATGAATACCCCGCCACGTTGCTGCGGAAAATTAAGTCGGAGTCACCTAGTGCAG | 3690 fluorescence intensity (a.u.) |
| TAATTTAGTTTTATATAAGTTGAAGGACGTGTTATATTAGCGGAGTCACCTAGTGCAG | 3180 fluorescence intensity (a.u.) |
| GAACGGAGGCGCTTTATACTTCTCTTCGCCTTGTCAAATTCGGAGTCACCTAGTGCAG | 3150 fluorescence intensity (a.u.) |
| TGACATGTGGGGTTCTAGGAATAGGCGTGTATCTAACAAGCGGAGTCACCTAGTGCAG | 3480 fluorescence intensity (a.u.) |
| ATCATCTCCTCTCGGTCCATCACAACACCTCCGCCTCCCACGGAGTCACCTAGTGCAG | 3160 fluorescence intensity (a.u.) |
